The subject of the data set is AcrF7 (Pseudomonas aeruginosa). The data set can be described thus: BLI. As to conditions: 500 nM AcrF7 alone, very low shift, weak non-specific interaction; recombinant protein; protein details: His-tag; label: 5' biotin-TEG.

For at least one entry, the source does not settle the construct or the ends of the probe. A weaker result is weaker than the reference pair of the same experiment.

Turning to “CGCCGGTTATAGGTTTGCGCGTCTTGCTGGGCGATAGGACGTGGGATATCTTTTTGATATCCCACGTCCTATCGCCCAGCAAGACGCGCAAACCTATAACCGGCG (double strand) [Complementary (GG PAM)]”, the binding result was “binds more weakly”.

Source of the values: paper PMC7266957.
